Assay results as given in US20050227918A1, “Method for assaying susceptibility to cancer therapy in a subject by assaying for tumors of P53” (priority 2004, published 2005).
These are yes or no findings as the source states them, for the method shown. Some binding calls cover weakened binding; strength is not graded here. Tags and fused reporters may be left off the sequences shown.

Biological target: T1, HA tagged p73α (UniProt O15350)
T1 sequence (looked up): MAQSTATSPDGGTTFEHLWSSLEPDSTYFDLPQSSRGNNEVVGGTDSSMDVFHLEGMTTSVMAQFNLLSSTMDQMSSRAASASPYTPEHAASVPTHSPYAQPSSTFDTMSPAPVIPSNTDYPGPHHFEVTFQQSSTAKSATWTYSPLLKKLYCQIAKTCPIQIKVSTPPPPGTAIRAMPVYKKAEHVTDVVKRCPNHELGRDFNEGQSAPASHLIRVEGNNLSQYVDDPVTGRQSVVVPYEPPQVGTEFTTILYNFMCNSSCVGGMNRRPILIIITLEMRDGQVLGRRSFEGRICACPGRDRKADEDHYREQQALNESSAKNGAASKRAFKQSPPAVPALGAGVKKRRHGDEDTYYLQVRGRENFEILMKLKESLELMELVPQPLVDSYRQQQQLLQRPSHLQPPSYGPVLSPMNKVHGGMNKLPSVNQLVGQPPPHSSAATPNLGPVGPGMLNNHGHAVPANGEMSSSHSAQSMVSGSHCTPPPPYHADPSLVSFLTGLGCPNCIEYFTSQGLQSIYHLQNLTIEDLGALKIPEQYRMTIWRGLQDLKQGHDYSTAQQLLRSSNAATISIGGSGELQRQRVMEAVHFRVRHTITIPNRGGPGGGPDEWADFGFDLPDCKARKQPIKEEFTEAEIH
Assay: no binding assay described in the example; the sentence is followed by literature citations

binding: binds
B1: p73DD (protein, UniProt O15350 327-636, looked up)
chain: KRAFKQSPPAVPALGAGVKKRRHGDEDTYYLQVRGRENFEILMKLKESLELMELVPQPLVDSYRQQQQLLQRPSHLQPPSYGPVLSPMNKVHGGMNKLPSVNQLVGQPPPHSSAATPNLGPVGPGMLNNHGHAVPANGEMSSSHSAQSMVSGSHCTPPPPYHADPSLVSFLTGLGCPNCIEYFTSQGLQSIYHLQNLTIEDLGALKIPEQYRMTIWRGLQDLKQGHDYSTAQQLLRSSNAATISIGGSGELQRQRVMEAVHFRVRHTITIPNRGGPGGGPDEWADFGFDLPDCKARKQPIKEEFTEAEIH
